System: DAN-G (Pancreatic Carcinoma)
Assay: Bliss excess, mean over the matrix (fraction); higher = more synergy
Procedure, shortened: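 After 24 hours at 37°C and 5% CO2 in 1536-well plates, cells in DMEM/F12 or RPMI plus 10% FBS received two-drug dose matrices for 72 hours. Viability came from CellTiter-Glo 2.0 luminescence and was scaled as inhibition, anchored at 0 by vehicle wells and at 1 by blank wells. Combination Emax is taken as the second-highest inhibition in the matrix, and Bliss excess as the observed combination effect less EA + EB − EA·EB, with EA and EB the single-agent effects.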
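Further: after 72 h of two-drug dosing.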

`COc1cc2ncnc(Nc3ccc(F)c(Cl)c3)c2cc1OCCCN1CCOCC1` [Gefitinib] + CC(C)n1c(=O)n(C)c2cnc3cc(F)c(-c4ccc(OCCCN5CCCCC5)nc4)cc3c21 [AZD1390] (first compound max 10 µM, 7x7, partner max 0.3 µM) gave a Bliss excess of -0.0655.

Reference: the supplement of paper PMC11061612
